Assay in all cases: glycan array binding signal (z-score within array); higher = stronger binding
What all share (details): glycan notation: IUPAC condensed, linker removed

Experiment [1] concerns the target Gal(b1-4)GlcNAc(b1-2)Man(a1-3)[Gal(b1-4)GlcNAc(b1-2)Man(a1-6)]Man(b1-4)GlcNAc(b1-4)[Fuc(a1-6)]GlcNAc. A digest of the protocol: (§1)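 Negative Z-scores can be read as non-binding. The Z-score is calculated within each array and then averaged across arrays of one protein sequence at different concentrations or buffers and across linkers. Arrays, 3228 in all, were curated from the Consortium for Functional Glycomics database and kept only where the protein sequence was available.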

Experiment [2] deals with Gal(b1-4)GlcNAc(b1-2)Man(a1-3)[Gal(b1-4)GlcNAc(b1-2)Man(a1-6)][Gal(b1-4)GlcNAc(b1-4)]Man(b1-4)GlcNAc(b1-4)[Fuc(a1-6)]GlcNAc. A digest of the protocol:
as §1

Experiment [3] has as its target Gal(b1-4)GlcNAc(b1-2)Man(a1-3)[Gal(b1-4)GlcNAc(b1-2)Man(a1-6)][GlcNAc(b1-4)]Man(b1-4)GlcNAc(b1-4)[Fuc(a1-6)]GlcNAc. A digest of the protocol: as §1
For experiment [4], the target named is Gal(b1-4)GlcNAc(b1-2)Man(a1-3)[GlcNAc(b1-2)Man(a1-6)]Man(b1-4)GlcNAc(b1-4)GlcNAc. In short, it runs like this:
as §1

Experiment [5] concerns the target Gal(b1-4)GlcNAc(b1-2)Man(a1-3)[GlcNAc(b1-4)][Gal(b1-4)GlcNAc(b1-2)Man(a1-6)]Man(b1-4)GlcNAc(b1-4)GlcNAc. In short, it runs like this:
as §1

Experiment [6] addresses Gal(b1-4)GlcNAc(b1-2)Man(a1-3)[Man(a1-6)]Man(b1-4)GlcNAc(b1-4)GlcNAc. A digest of the protocol:
as §1

The target of experiment [7] is Gal(b1-4)GlcNAc(b1-2)Man(a1-6)Man(b1-4)GlcNAc(b1-4)GlcNAc. A digest of the protocol: as §1
The target in experiment [8] is Gal(b1-4)GlcNAc(b1-2)Man(a1-6)[GlcNAc(b1-2)Man(a1-3)]Man(b1-4)GlcNAc(b1-4)GlcNAc. A digest of the protocol: as §1
Experiment [9] has as its target Gal(b1-4)GlcNAc(b1-2)Man(a1-6)[Man(a1-3)]Man(b1-4)GlcNAc(b1-4)GlcNAc. In short, it runs like this:
as §1

Experiment [10] has as its target Gal(b1-4)GlcNAc(b1-2)[Gal(b1-4)GlcNAc(b1-4)]Man(a1-3)[Gal(b1-4)GlcNAc(b1-2)Man(a1-6)]Man(b1-4)GlcNAc(b1-4)GlcNAc. A digest of the protocol: as §1
In experiment [11] the target is Gal(b1-4)GlcNAc(b1-2)[Gal(b1-4)GlcNAc(b1-4)]Man(a1-3)[Gal(b1-4)GlcNAc(b1-2)[Gal(b1-4)GlcNAc(b1-6)]Man(a1-6)]Man(b1-4)GlcNAc(b1-4)GlcNAc. In short, it runs like this: as §1
In experiment [12] the target is Gal(b1-4)GlcNAc(b1-2)[Gal(b1-4)GlcNAc(b1-4)]Man(a1-3)[GlcNAc(b1-4)][Gal(b1-4)GlcNAc(b1-2)Man(a1-6)]Man(b1-4)GlcNAc(b1-4)GlcNAc. In short, it runs like this:
as §1

The target of experiment [13] is Gal(b1-4)GlcNAc(b1-2)[Gal(b1-4)GlcNAc(b1-4)]Man(a1-3)[GlcNAc(b1-4)][Gal(b1-4)GlcNAc(b1-2)[Gal(b1-4)GlcNAc(b1-6)]Man(a1-6)]Man(b1-4)GlcNAc(b1-4)GlcNAc. In short, it runs like this:
as §1

Experiment [14] concerns the target Gal(b1-4)GlcNAc(b1-2)[Gal(b1-4)GlcNAc(b1-6)]Man(a1-6)[Gal(b1-4)GlcNAc(b1-2)Man(a1-3)]Man(b1-4)GlcNAc(b1-4)GlcNAc. A digest of the protocol: as §1
The target of experiment [15] is Gal(b1-4)GlcNAc(b1-2)[Gal(b1-4)GlcNAc(b1-6)]Man(a1-6)[Gal(b1-4)GlcNAc(b1-2)Man(a1-3)]Man(b1-4)GlcNAc(b1-4)[Fuc(a1-6)]GlcNAc. A digest of the protocol: as §1
The target in experiment [16] is Gal(b1-4)GlcNAc(b1-2)[Gal(b1-4)GlcNAc(b1-6)]Man(a1-6)[GlcNAc(b1-4)][Gal(b1-4)GlcNAc(b1-2)Man(a1-3)]Man(b1-4)GlcNAc(b1-4)GlcNAc. A digest of the protocol: as §1
The target in experiment [17] is Gal(b1-4)GlcNAc(b1-2)[Gal(b1-4)GlcNAc(b1-6)]Man(a1-6)[GlcNAc(b1-4)][Gal(b1-4)GlcNAc(b1-2)[Gal(b1-4)GlcNAc(b1-4)]Man(a1-3)]Man(b1-4)GlcNAc(b1-4)[Fuc(a1-6)]GlcNAc. A digest of the protocol:
as §1

Experiment [18] concerns the target Gal(b1-4)GlcNAc(b1-3)Gal(b1-3)GalNAc. In short, it runs like this: as §1
Experiment [19] has as its target Gal(b1-4)GlcNAc(b1-3)Gal(b1-3)GlcNAc. A digest of the protocol:
as §1

The other results are listed elsewhere or left out.

B1: SAOUHSC 02783 (Staphylococcus aureus), Q5HD69 (protein)
chain: MIHSKKLTLGICLVLLIILIVGYVIMTKTNGRNAQIKDTFNQTLKLYPTKNLDDFYDKEGFRDQEFKKGDKGTWIVNSEMVIEPKGKDMETRGMVLYINRNTRTTKGYYFISEMTDDSNGRPKDDEKRYPVKMEHNKIIPTKPLPNDKLKKEIENFKFFVQYGNFKDINDYKDGDISYNPNVPSYSAKYQLNNDDYNVQQLRKRYDIPTKQAPKLLLKGDGDLKGSSVGSRSLEFTFVENKEENIYFTDSVQYTPSEDTRYESN
B1: the “glycan array binding signal (z-score)” value is -0.82 in experiment [1]; 0.178 in experiment [2]; -0.077 in experiment [3]; 0.018 in experiment [4]; 0.438 in [5]; 5.18 in experiment [6]. For the same molecule, the “glycan array binding signal (z-score)” value in [7] was 0.151; in [8], 0.066; in [9], -0.93; in experiment [10], 0.614; in experiment [11] it was -1.06; in experiment [12], -0.099. For the same molecule, the “glycan array binding signal (z-score)” value in experiment [13] was -0.31; in [14], -0.847; in [15], 0.542; in experiment [16], 0.044; in [17], -0.197; in experiment [18] it was -0.665. Moreover, the “glycan array binding signal (z-score)” value in experiment [19] is -1.42.

Values taken from the supplement of paper PMC8728848.
